Laboratory results published in the supplement of paper PMC10849652.
The list shows a part of the results.

The chains behind the UniProt entries cited, without tags or fusion partners. Where a name states a change or a piece, a line headed by the entry shows the natural chain unless it says otherwise.
UniProt Q9Y6E2: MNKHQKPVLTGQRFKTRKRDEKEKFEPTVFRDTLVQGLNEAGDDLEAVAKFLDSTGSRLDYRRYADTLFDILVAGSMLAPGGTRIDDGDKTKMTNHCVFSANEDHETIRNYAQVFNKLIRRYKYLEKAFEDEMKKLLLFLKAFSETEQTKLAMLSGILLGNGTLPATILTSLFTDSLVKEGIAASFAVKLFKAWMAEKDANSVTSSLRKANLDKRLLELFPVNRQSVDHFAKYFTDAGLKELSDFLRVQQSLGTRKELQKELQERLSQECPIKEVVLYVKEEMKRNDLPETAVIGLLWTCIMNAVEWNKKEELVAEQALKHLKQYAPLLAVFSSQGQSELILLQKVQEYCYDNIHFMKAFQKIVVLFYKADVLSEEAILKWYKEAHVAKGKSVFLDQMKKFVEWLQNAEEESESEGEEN
UniProt Q8WUR7: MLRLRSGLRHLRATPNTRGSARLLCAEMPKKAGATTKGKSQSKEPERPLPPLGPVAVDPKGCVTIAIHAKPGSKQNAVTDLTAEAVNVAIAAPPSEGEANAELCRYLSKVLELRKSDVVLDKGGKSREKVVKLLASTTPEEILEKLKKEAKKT
UniProt O14523: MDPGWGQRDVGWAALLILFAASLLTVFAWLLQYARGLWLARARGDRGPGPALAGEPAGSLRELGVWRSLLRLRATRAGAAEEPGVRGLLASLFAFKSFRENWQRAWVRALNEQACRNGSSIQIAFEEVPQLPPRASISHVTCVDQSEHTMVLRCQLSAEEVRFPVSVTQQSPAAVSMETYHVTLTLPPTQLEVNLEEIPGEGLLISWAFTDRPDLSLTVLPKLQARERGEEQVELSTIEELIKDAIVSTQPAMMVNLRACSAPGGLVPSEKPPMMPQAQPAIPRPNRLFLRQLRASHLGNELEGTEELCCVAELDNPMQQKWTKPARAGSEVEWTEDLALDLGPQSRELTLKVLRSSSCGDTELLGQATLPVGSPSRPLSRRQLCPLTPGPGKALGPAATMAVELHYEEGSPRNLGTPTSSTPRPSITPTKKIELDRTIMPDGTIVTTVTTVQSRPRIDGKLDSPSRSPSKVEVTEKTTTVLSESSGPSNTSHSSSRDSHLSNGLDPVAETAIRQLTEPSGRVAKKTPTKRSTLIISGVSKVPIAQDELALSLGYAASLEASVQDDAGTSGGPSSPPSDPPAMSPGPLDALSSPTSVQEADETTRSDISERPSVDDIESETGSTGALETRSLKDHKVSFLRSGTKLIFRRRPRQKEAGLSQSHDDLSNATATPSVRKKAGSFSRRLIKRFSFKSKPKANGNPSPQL
UniProt Q9UFG5: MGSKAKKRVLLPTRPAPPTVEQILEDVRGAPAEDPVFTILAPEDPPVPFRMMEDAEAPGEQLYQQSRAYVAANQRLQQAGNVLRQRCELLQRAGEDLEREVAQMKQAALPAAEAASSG
UniProt P40121: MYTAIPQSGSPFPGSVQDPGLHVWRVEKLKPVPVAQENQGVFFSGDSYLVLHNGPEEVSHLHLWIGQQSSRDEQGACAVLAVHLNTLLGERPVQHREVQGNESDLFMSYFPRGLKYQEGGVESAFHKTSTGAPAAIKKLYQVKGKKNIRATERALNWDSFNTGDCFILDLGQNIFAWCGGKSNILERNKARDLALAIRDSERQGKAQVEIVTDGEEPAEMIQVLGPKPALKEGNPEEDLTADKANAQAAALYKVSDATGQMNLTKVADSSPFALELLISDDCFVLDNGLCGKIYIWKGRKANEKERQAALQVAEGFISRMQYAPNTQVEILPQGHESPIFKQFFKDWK
UniProt P01024, whole entry, looked up: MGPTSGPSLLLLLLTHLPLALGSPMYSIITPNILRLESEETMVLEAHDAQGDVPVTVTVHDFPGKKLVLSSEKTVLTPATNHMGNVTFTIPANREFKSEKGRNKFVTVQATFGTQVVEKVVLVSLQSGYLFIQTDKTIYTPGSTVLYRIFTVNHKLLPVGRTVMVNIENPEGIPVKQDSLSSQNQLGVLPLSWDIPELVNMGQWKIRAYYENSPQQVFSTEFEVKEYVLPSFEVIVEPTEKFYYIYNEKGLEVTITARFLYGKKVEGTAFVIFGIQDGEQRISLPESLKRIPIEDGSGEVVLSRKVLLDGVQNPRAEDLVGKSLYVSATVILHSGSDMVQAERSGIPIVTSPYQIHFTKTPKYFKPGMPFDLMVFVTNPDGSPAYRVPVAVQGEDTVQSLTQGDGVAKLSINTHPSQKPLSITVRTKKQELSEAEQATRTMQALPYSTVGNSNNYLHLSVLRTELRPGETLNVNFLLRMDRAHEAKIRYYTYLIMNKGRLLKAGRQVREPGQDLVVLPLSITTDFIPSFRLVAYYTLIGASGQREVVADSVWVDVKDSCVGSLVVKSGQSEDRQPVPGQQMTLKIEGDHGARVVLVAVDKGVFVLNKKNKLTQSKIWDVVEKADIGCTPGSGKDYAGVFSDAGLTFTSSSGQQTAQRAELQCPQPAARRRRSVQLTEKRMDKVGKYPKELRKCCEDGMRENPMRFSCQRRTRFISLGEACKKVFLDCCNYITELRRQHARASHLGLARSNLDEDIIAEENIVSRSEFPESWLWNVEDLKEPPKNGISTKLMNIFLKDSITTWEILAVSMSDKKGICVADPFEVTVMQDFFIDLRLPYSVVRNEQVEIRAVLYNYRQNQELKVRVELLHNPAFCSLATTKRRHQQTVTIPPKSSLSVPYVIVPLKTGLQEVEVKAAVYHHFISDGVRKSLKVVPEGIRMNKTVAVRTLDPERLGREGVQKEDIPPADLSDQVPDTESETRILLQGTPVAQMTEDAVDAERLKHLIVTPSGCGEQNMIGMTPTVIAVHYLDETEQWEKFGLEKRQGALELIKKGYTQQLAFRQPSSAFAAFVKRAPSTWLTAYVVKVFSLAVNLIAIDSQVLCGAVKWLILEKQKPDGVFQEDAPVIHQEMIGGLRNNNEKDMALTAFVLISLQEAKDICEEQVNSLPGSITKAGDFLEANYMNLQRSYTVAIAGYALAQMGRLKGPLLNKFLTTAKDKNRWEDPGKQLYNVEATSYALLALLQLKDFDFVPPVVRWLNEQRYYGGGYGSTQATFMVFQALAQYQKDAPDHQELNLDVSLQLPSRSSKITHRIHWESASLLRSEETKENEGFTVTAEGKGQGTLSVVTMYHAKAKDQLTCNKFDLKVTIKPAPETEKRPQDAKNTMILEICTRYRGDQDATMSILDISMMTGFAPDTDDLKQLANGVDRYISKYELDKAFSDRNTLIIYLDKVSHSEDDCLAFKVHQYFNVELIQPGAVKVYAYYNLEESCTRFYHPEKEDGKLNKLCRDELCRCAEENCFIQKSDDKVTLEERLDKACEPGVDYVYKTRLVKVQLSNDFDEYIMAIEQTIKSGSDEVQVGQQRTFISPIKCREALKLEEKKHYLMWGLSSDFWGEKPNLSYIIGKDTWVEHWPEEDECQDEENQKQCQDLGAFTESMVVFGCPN
UniProt P35613: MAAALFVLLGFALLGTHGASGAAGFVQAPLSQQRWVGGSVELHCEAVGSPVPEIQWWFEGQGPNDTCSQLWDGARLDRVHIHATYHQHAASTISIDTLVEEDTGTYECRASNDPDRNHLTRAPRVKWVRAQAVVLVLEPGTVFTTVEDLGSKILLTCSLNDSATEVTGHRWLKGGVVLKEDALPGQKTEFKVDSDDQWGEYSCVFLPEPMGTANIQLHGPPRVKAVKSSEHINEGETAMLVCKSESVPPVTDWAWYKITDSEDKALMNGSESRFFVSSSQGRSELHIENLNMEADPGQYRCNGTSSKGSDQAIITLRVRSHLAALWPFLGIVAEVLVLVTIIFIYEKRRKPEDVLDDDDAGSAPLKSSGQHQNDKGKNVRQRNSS
UniProt Q9NS00: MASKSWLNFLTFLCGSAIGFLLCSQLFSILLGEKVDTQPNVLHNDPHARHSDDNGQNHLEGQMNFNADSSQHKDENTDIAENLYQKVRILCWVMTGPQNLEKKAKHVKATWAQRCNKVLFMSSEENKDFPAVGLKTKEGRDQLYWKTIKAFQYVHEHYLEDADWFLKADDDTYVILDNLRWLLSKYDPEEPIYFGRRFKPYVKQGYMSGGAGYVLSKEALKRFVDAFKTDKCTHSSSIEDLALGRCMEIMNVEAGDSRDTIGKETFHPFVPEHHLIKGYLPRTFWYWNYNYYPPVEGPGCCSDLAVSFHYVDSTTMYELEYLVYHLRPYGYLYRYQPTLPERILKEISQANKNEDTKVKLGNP
UniProt Q13137: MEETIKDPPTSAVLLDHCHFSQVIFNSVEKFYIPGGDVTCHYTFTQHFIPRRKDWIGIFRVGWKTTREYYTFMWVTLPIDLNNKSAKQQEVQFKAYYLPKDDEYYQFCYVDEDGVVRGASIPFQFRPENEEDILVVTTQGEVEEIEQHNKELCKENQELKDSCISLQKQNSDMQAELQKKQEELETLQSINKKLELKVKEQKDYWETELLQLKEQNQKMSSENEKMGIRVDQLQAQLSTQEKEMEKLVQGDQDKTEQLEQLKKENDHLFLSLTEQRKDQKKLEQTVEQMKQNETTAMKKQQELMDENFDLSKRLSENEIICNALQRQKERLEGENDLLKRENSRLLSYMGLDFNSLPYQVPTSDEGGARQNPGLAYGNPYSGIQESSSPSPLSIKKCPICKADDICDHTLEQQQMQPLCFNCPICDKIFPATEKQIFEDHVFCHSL
UniProt Q07021: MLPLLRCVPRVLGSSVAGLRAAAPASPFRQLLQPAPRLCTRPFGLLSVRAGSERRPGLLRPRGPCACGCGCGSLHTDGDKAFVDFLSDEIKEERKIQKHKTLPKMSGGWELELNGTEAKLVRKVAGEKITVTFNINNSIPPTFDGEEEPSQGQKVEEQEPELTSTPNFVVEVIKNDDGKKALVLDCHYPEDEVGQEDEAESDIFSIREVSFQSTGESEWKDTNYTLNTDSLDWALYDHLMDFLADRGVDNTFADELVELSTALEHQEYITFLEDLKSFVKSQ
UniProt Q9NX04: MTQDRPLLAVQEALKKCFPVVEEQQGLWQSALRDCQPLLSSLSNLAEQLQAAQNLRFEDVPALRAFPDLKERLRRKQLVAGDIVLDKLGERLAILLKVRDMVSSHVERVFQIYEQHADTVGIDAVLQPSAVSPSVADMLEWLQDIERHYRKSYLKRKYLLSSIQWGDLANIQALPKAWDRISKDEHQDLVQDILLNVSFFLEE
UniProt Q9Y6W3: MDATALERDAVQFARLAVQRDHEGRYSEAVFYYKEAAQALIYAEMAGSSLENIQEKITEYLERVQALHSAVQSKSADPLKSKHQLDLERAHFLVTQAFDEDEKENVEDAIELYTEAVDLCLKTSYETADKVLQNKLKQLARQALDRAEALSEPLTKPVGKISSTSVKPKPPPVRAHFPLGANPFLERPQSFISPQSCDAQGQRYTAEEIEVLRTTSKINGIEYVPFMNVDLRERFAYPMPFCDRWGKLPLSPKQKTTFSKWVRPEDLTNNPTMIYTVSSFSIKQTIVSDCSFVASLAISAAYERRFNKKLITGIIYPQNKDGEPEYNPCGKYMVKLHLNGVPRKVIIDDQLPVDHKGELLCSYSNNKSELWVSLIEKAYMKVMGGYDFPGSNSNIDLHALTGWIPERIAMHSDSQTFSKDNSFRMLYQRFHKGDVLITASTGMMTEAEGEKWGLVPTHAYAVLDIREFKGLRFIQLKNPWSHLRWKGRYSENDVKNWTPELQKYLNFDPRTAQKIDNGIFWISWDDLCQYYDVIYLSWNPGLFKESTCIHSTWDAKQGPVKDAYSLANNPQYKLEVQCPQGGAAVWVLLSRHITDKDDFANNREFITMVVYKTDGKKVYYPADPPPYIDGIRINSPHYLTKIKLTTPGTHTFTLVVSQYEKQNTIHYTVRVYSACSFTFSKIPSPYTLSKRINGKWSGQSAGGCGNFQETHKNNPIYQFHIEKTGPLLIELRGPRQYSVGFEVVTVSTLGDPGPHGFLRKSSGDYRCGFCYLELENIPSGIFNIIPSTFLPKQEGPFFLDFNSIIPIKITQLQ
UniProt Q01518, whole entry, looked up: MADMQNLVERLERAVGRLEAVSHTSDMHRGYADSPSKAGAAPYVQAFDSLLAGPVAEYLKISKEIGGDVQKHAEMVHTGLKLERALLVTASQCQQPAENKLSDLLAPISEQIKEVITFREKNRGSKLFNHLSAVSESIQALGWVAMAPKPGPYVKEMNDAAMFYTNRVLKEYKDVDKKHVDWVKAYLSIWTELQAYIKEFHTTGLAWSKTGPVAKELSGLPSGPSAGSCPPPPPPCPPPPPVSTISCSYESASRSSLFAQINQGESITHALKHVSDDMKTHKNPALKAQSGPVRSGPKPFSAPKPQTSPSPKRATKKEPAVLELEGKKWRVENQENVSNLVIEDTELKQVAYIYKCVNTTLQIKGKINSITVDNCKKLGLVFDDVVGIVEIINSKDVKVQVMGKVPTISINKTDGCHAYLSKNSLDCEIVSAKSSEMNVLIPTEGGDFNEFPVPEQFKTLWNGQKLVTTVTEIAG

How the values were obtained:
Test in all cases: log2 fold change, soluble protein after heating vs DMSO (PISA); higher = thermal stabilisation; K562 cells, 10 uM, 30 min; active = over 0.2 and 3.5 SD of the protein, either way, in both replicates (recomputed)
bafetinib = compound: Cc1ccc(NC(=O)c2ccc(CN3CC[C@H](N(C)C)C3)c(C(F)(F)F)c2)cc1Nc1nccc(-c2cncnc2)n1 [bafetinib]
Procedure, shortened: (§1)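 K562 cells at 2×10^6 cells/mL were given 10 μM compound for 30 min. Aliquots then went through 3 min of heating across 48°C-58°C, were pooled, and were extracted in PBS with 0.5% NP-40 at 4°C, and the supernatant after 21,000xg for 90 min was quantified by TMTpro 16plex LC-MS/MS with channel sums equalised. Thermal stability relative to control samples, from duplicates, is given as log2 fold change.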

[1] = compound: Cc1cccc(CC(=O)N2CCc3c2ccc(-c2cn(C)c4ncnc(N)c24)c3F)n1
Procedure, shortened: as §1

nilotinib = compound: Cc1cn(-c2cc(NC(=O)c3ccc(C)c(Nc4nccc(-c5cccnc5)n4)c3)cc(C(F)(F)F)c2)cn1 [nilotinib]
Procedure, shortened: as §1

[2] = compound: Cc1nc(Nc2n[nH]c3c2CN(C(=O)N[C@H](CN(C)C)c2ccccc2)C3(C)C)c2sccc2n1
Procedure, shortened: as §1

dasatinib = compound: Cc1nc(Nc2ncc(C(=O)Nc3c(C)cccc3Cl)s2)cc(N2CCN(CCO)CC2)n1 [dasatinib]
Procedure, shortened: as §1

[3] = compound: Cc1ncc(-c2ccnc(Nc3ccc(S(C)(=O)=O)cc3)n2)n1C(C)C
Procedure, shortened: as §1

[4] = compound: Cn1cc(-c2ccc3c(c2)CCN3C(=O)Cc2cccc(C(F)(F)F)c2)c2c(N)ncnc21
Procedure, shortened: as §1

[5] = compound: Cn1cc(-c2ccc3nnc(C(F)(F)c4ccc5ncccc5c4)n3n2)cn1
Procedure, shortened: as §1

tipifarnib = compound: Cn1cncc1[C@@](N)(c1ccc(Cl)cc1)c1ccc2c(c1)c(-c1cccc(Cl)c1)cc(=O)n2C [tipifarnib]
Procedure, shortened: as §1

mubritinib = compound: FC(F)(F)c1ccc(/C=C/c2nc(COc3ccc(CCCCn4ccnn4)cc3)co2)cc1 [mubritinib]
Procedure, shortened: as §1

[6] = compound: NC(=O)Nc1cc(-c2cccc(F)c2)sc1C(=O)N[C@H]1CCCNC1
Procedure, shortened: as §1

[7] = compound: NC(=O)c1cnc(N[C@@H]2CCCC[C@@H]2N)nc1Nc1cccc(-n2nccn2)c1
Procedure, shortened: as §1

[8] = compound: NC1(c2ccc(-c3nc4ccn5c(=O)[nH]nc5c4cc3-c3ccccc3)cc2)CCC1
Procedure, shortened: as §1

[9] = compound: NCC(=O)Nc1ccc(-n2nc(C(F)(F)F)cc2-c2ccc3c(ccc4ccccc43)c2)cc1
Procedure, shortened: as §1

entinostat = compound: Nc1ccccc1NC(=O)c1ccc(CNC(=O)OCc2cccnc2)cc1 [entinostat]
Procedure, shortened: as §1

vorinostat = compound: O=C(CCCCCCC(=O)Nc1ccccc1)NO [vorinostat]
Procedure, shortened: as §1

citarinostat = compound: O=C(CCCCCCNC(=O)c1cnc(N(c2ccccc2)c2ccccc2Cl)nc1)NO [citarinostat]
Procedure, shortened: as §1

silmitasertib = compound: O=C(O)c1ccc2c(c1)nc(Nc1cccc(Cl)c1)c1ccncc12 [silmitasertib]
Procedure, shortened: as §1

[10] = compound: O=C1NC(=O)C(c2cnc3ccccn23)=C1c1cn2c3c(cc(F)cc13)CN(C(=O)N1CCCCC1)CC2
Procedure, shortened: as §1

[11] = compound: c1cc(OCCN2CCCCC2)cc(-c2n[nH]c3ccc(-c4nnc[nH]4)cc23)c1
Procedure, shortened: as §1

| Target | log2 fold change (bafetinib) | log2 fold change [1] | log2 fold change (nilotinib) | log2 fold change [2] | log2 fold change (dasatinib) | log2 fold change [3] | log2 fold change [4] | log2 fold change [5] | log2 fold change (tipifarnib) | log2 fold change (mubritinib) | log2 fold change [6] | log2 fold change [7] | log2 fold change [8] | log2 fold change [9] | log2 fold change (entinostat) | log2 fold change (vorinostat) | log2 fold change (citarinostat) | log2 fold change (silmitasertib) | log2 fold change [10] | log2 fold change [11] |
| --- | --- | --- | --- | --- | --- | --- | --- | --- | --- | --- | --- | --- | --- | --- | --- | --- | --- | --- | --- | --- |
| BZW2 (UniProt Q9Y6E2) | inactive: -0.021 | inactive: 0.073 | inactive: -0.057 | inactive: -0.04 | inactive: -0.132 | inactive: -0.019 | inactive: 0.034 | inactive: -0.004 | inactive: -0.158 | inactive: 0.095 | inactive: 0.019 | inactive: -0.055 | inactive: -0.225 | inactive: -0.066 | inactive: 0.047 | inactive: -0.003 | inactive: 0.044 | inactive: -0.001 | inactive: -0.044 | inactive: -0.069 |
| C15orf40 (UniProt Q8WUR7) | inactive: 0.057 | inactive: 0.012 | inactive: 0.037 | inactive: 0.036 | inactive: 0.013 | inactive: 0.015 | inactive: -0.036 | inactive: -0.015 | inactive: -0.008 | inactive: 0.038 | inactive: -0.043 | inactive: -0.045 | inactive: 0.021 | inactive: 0.052 | inactive: -0.053 | inactive: 0.004 | inactive: -0.049 | inactive: 0.049 | inactive: -0.182 | inactive: -0.067 |
| C2CD2L (UniProt O14523) | inactive: -0.069 | inactive: -0.029 | inactive: 0.043 | inactive: -0.079 | inactive: 0.085 | inactive: -0.05 | inactive: 0.028 | inactive: 0.027 | inactive: -0.005 | inactive: 0.016 | inactive: 0 | inactive: -0.108 | inactive: -0.049 | inactive: -0.022 | inactive: -0.055 | inactive: -0.033 | inactive: -0.01 | inactive: 0.006 | inactive: -0.052 | inactive: -0.033 |
| CAND1 (UniProt Q86VP6) | inactive: -0.034 | inactive: 0.014 | inactive: -0.005 | inactive: 0.003 | inactive: 0.043 | inactive: -0.004 | inactive: 0.017 | inactive: 0.015 | inactive: -0.058 | inactive: 0.02 | inactive: 0.009 | inactive: 0.014 | inactive: -0.049 | inactive: 0.024 | inactive: -0.008 | inactive: 0.008 | inactive: 0.041 | inactive: -0.024 | inactive: -0.011 | inactive: -0.012 |
| C19orf25 (UniProt Q9UFG5) | inactive: -0.068 | inactive: -0.128 | inactive: -0.018 | inactive: -0.009 | inactive: 0.071 | inactive: -0.004 | inactive: 0.128 | inactive: 0.172 | inactive: 0.073 | inactive: 0.012 | inactive: -0.1 | inactive: 0.017 | inactive: 0.052 | inactive: -0.127 | inactive: 0.014 | inactive: -0.219 | inactive: 0.01 | inactive: -0.034 | inactive: 0.073 | inactive: 0.138 |
| CAPZA1 (UniProt P52907) | inactive: -0.013 | inactive: -0.013 | inactive: 0.014 | inactive: 0.009 | inactive: -0.024 | inactive: 0.005 | inactive: 0.07 | inactive: -0.028 | inactive: -0.047 | inactive: -0.007 | inactive: -0.006 | inactive: -0.006 | inactive: -0.025 | inactive: 0.006 | inactive: -0.005 | inactive: 0.015 | inactive: 0.012 | inactive: -0.004 | inactive: -0.026 | inactive: -0.015 |
| CAPG (UniProt P40121) | inactive: 0.003 | inactive: 0.041 | inactive: 0.013 | inactive: -0.08 | inactive: -0.046 | inactive: 0 | inactive: 0.04 | inactive: 0.005 | inactive: 0.024 | inactive: 0.006 | inactive: 0.111 | inactive: -0.01 | inactive: -0.137 | inactive: -0.014 | inactive: 0.115 | inactive: 0 | inactive: 0.054 | inactive: -0.005 | inactive: -0.084 | inactive: 0.026 |
| C3 (UniProt P01024) | inactive: -0.103 | inactive: -0.012 | inactive: 0.069 | inactive: 0.044 | inactive: 0.064 | inactive: 0.329 | inactive: 0.233 | inactive: -0.056 | inactive: 0.029 | inactive: -0.156 | inactive: -0.042 | inactive: 0.015 | inactive: 0.168 | inactive: 0.056 | inactive: -0.024 | inactive: 0.083 | inactive: -0.069 | inactive: 0.201 | inactive: 0.096 | inactive: 0.417 |
| BSG (UniProt P35613) | inactive: 0.032 | inactive: -0.021 | inactive: 0.063 | inactive: -0.029 | inactive: 0.022 | inactive: 0.012 | inactive: 0.04 | inactive: -0.016 | inactive: -0.008 | inactive: 0.054 | inactive: -0.074 | inactive: 0.017 | inactive: 0.086 | inactive: 0.022 | inactive: -0.061 | inactive: -0.01 | inactive: -0.031 | inactive: -0.032 | inactive: -0.03 | inactive: -0.058 |
| C1GALT1 (UniProt Q9NS00) | inactive: -0.069 | inactive: -0.081 | inactive: -0.157 | inactive: 0.023 | inactive: 0.033 | inactive: -0.087 | inactive: 0.003 | inactive: 0.049 | inactive: 0.026 | inactive: -0.004 | inactive: -0.023 | inactive: -0.046 | inactive: -0.031 | inactive: 0.054 | inactive: -0.016 | inactive: -0.136 | inactive: -0.028 | inactive: -0.005 | inactive: -0.031 | inactive: -0.096 |
| CALCOCO2 isoform 4 (UniProt Q13137) | active: -0.647 | inactive: -0.061 | inactive: -0.039 | inactive: 0.038 | inactive: 0.01 | inactive: 0.1 | inactive: -0.013 | inactive: -0.035 | inactive: -0.015 | inactive: -0.025 | inactive: -0.017 | inactive: -0.075 | active: -0.324 | inactive: -0.185 | inactive: -0.006 | inactive: -0.006 | inactive: 0.035 | inactive: 0.047 | inactive: 0.071 | inactive: -0.034 |
| C2CD2 (UniProt Q9Y426) | inactive: -0.039 | inactive: 0.022 | inactive: -0.309 | inactive: -0.411 | inactive: -0.018 | inactive: -0.246 | inactive: -0.071 | inactive: -0.063 | inactive: -0.016 | inactive: 0.007 | inactive: -0.166 | inactive: 0.007 | inactive: 0.174 | inactive: 0.028 | inactive: 0.025 | inactive: 0.004 | inactive: 0.043 | inactive: -0.067 | inactive: 0.033 | inactive: -0.016 |
| C1QBP (UniProt Q07021) | inactive: 0.023 | inactive: 0.01 | inactive: 0.007 | inactive: 0.025 | inactive: -0.014 | inactive: -0.067 | inactive: 0.029 | inactive: 0.008 | inactive: 0.008 | inactive: -0.015 | inactive: -0.013 | inactive: -0.017 | inactive: 0.042 | inactive: -0.011 | inactive: -0.003 | inactive: -0.001 | inactive: -0.046 | inactive: -0.059 | inactive: -0.075 | inactive: 0.023 |
| C1orf109 (UniProt Q9NX04) | inactive: -0.061 | inactive: 0.013 | inactive: -0.001 | inactive: -0.146 | inactive: 0.036 | inactive: 0.027 | inactive: 0.037 | inactive: 0.043 | inactive: 0.025 | inactive: 0.049 | inactive: 0.044 | inactive: -0.037 | inactive: -0.004 | inactive: -0.024 | inactive: -0.063 | inactive: 0.083 | inactive: -0.02 | inactive: 0.042 | inactive: -0.108 | inactive: -0.024 |
| CAPN7 (UniProt Q9Y6W3) | inactive: -0.005 | inactive: 0.028 | inactive: -0.049 | inactive: -0.103 | inactive: -0.137 | inactive: -0.002 | inactive: 0.048 | inactive: 0.011 | inactive: -0.131 | inactive: 0.073 | inactive: 0.013 | inactive: -0.072 | inactive: -0.185 | inactive: -0.022 | inactive: 0.049 | inactive: 0.067 | inactive: -0.001 | inactive: 0.013 | inactive: -0.033 | inactive: -0.021 |
| CAP1 (UniProt Q01518) | inactive: 0 | inactive: 0.003 | inactive: 0.039 | inactive: 0.061 | inactive: -0.012 | inactive: 0.001 | inactive: 0.054 | inactive: 0.013 | inactive: -0.061 | inactive: 0.077 | inactive: -0.055 | inactive: -0.014 | inactive: -0.073 | inactive: -0.039 | inactive: 0.013 | inactive: 0.011 | inactive: 0.008 | inactive: -0.008 | inactive: -0.045 | inactive: -0.012 |

Laid out differently: results already given
Target,log2 fold change (bafetinib),log2 fold change [1],log2 fold change (nilotinib),log2 fold change [2],log2 fold change (dasatinib),log2 fold change [3],log2 fold change [4],log2 fold change [5],log2 fold change (tipifarnib),log2 fold change (mubritinib),log2 fold change [6],log2 fold change [7],log2 fold change [8],log2 fold change [9],log2 fold change (entinostat),log2 fold change (vorinostat),log2 fold change (citarinostat),log2 fold change (silmitasertib),log2 fold change [10],log2 fold change [11]
BZW2 (UniProt Q9Y6E2),inactive: -0.021,inactive: 0.073,inactive: -0.057,inactive: -0.04,inactive: -0.132,inactive: -0.019,inactive: 0.034,inactive: -0.004,inactive: -0.158,inactive: 0.095,inactive: 0.019,inactive: -0.055,inactive: -0.225,inactive: -0.066,inactive: 0.047,inactive: -0.003,inactive: 0.044,inactive: -0.001,inactive: -0.044,inactive: -0.069
BSG (UniProt P35613),inactive: 0.032,inactive: -0.021,inactive: 0.063,inactive: -0.029,inactive: 0.022,inactive: 0.012,inactive: 0.04,inactive: -0.016,inactive: -0.008,inactive: 0.054,inactive: -0.074,inactive: 0.017,inactive: 0.086,inactive: 0.022,inactive: -0.061,inactive: -0.01,inactive: -0.031,inactive: -0.032,inactive: -0.03,inactive: -0.058
